Values of other authors in patent publication US5840324A, “Antiparasitic compositions” (Commonwealth Scientific and Industrial Organisation, priority 1993, dated 1998).

Settings: in vivo

For `COCC(=O)Nc1cc(Sc2ccccc2)ccc1N/C(=N\C(=O)OC)NC(=O)OC` [febantel, 2'-[2,3-bis-(methoxycarbonyl)guanidino]-5'-phenylthio-2-methoxyacetanilide], the metabolism is given as “metabolised to fenbendazole”.
